# Values quoted from earlier work, collected in US11096902B1, “Transdermal film formulations and methods of use” (King Abdulaziz University, priority 2021, dated 2021).
# Conditions: oral, with food
smiles,measurement,value
"CC(C)c1c(C(=O)Nc2ccccc2)c(-c2ccccc2)c(-c2ccc(F)cc2)n1CC[C@@H](O)C[C@@H](O)CC(=O)[O-].CC(C)c1c(C(=O)Nc2ccccc2)c(-c2ccccc2)c(-c2ccc(F)cc2)n1CC[C@@H](O)C[C@@H](O)CC(=O)[O-].[Ca+2] [ATC, Atorvastatin calcium]",reduction of maximum drug concentration (Cmax) by concomitant intake of food,9%
